Measurements reported in PubChem BioAssay AID1259260 (Sanger Institute, 2017)
This is a random part of 794 reagents. 13 of all reagents (1.6%) count as active. 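Calls reflect only knock-down without drug; synergy above 0.15 was grouped apart and does not change the call.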 Entries without a mark were called inactive. Viability is capped at 1. Not stated in the record: the amount of reagent, the time to read-out.

Test: 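Kinome knock-down with three anchor drugs to find synergy partners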 (primary screen)
Cell system: human NCI-H716 colorectal cancer cells
Reagent: siRNA pool against human genes
Challenge: anchor drugs BYL719 (alpelisib) 1 µM, cetuximab 5 µg/ml or trametinib 10 nM, each at a dose chosen to harm viability only mildly; DMSO vehicle for the knock-down-alone arm
Read-out: 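Replicate-averaged viability relative to a non-targeting pool, a robust z-score for knock-down alone, and a synergy score per anchor drug versus each agent alone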
Reading the numbers: viability robust z-score, siRNA alone: higher = more surviving cells; below -3 called essential; viability vs control, no drug: higher = more surviving cells; synergy score with BYL719 and synergy score with cetuximab and synergy score with trametinib: higher = stronger synergy (synthetic lethality) with drug
Hit rule: 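a knock-down counts as essential if its no-drug robust z-score is lower than -3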
Meaning of the calls: active = essential (knock-down alone lowers viability); inactive = no essential effect

| viability robust z-score, siRNA alone | viability vs control, no drug (fraction of control) | synergy score with BYL719 | synergy score with cetuximab | synergy score with trametinib | Target gene |
| --- | --- | --- | --- | --- | --- |
| 0.602 | 1 | -0.273 | -0.1 | -0.197 | GUCY2F (GeneID 2986) |
| 0.602 | 1 | -0.051 | -0.096 | 0.179 | MPP2 (GeneID 4355) |
| 0.602 | 1 | -0.0232 | -0.1 | 0.152 | ZC3H11A (GeneID 9877) |
| -0.157 | 0.921 | -0.161 | -0.171 | -0.0836 | PIK3R4 (GeneID 30849) |
| 0.409 | 0.98 | -0.0458 | -0.0956 | -0.13 | BRAF (GeneID 673) |
| -2.48 | 0.68 | -0.162 | 0.0752 | 0.061 | RPS6KA5 (GeneID 9252) |
| -0.254 | 0.911 | -0.216 | -0.1 | -0.0112 | BRSK1 (GeneID 84446) |
| 0.602 | 1 | -0.106 | -0.1 | -0.0341 | RNASEL (GeneID 6041) |
